Patent publication EP1590332B1, “A PROCESS FOR THE SYNTHESIS OF BISBENZIMIDAZOLES AND THEIR DERIVATIVES” (University of Delhi, priority 2003, dated 2004)
For at least one compound, name, drawing or mass did not settle the structure.

Columns and labels:
BMG-1 cells [1] = test: Proliferation kinetics (growth kinetics); type: cell-based, human; details: 100µM, exponentially growing cells
Protocol: The cytotoxic effect of DMA and TBZ on exponentially growing tumor cells BMG-1 was studied as a function of time. Cells were treated for 1 h with the ligands and allowed to grow for 24, 48 and 72 hours. The MTT assay was performed at the specified time points. […] There seemed to be no effect on the metabolic status of the treated cells. However, strikingly the metabolic activity of the treated cells seemed to be enhanced as compared to the untreated control cells. To further support our results we have performed cell survival assay at 0.1uM, 10uM and 100uM concentration of drug having control as untreated cell. These experiments were done thrice in six sets. Exponentially growing cells were used in these experiments and cell survival was studied using Macrocolony assay. The plating efficiency was nearly 77%. […] The increase in cell number as a function of time for the control as well as the treated cells remained same. […] The spectroscopic studies done included UV-Vis sepctroscopy, Fluorescence spectroscopy, Anisotropy measurements and Lifetime measurements and Thermal denaturation studies. […]
Cells were washed with HBSS and harvested using 0.05% trypsin. […] Proliferation Kinetics BMG-1 cells were seeded at 7000-8000 cells/ cm^2, and their proliferation kinetics was measured at 24-h intervals by trypsinizinig and counting total cells per flask using a hemocytometer. […]

BMG-1 cells [2] = system: BMG-1 cells

## COc1ccc(-c2nc3cc(-c4nc5cc(N6CCN(C)CC6)ccc5[nH]4)ccc3[nH]2)cc1OC [DMA, 5-(4-methylpiperazin-1-yl)-2-[2'-(3,4-dimethoxyphenyl)-5'-benzimidazolyl]benzimidazole]
BMG-1 cells [1]
  growth kinetics of the treated cells: did not differ from the untreated cells
BMG-1 cells [2]; conclusion from BMG-1 and Hek cell lines
  radioprotection in comparison to Hoechst 33342: better radioprotectors
BMG-1 cells [2]; low concentration (0.1,1µM), no irradiation
  effect on survival: did not show any effect on survival
